# Library screening results

The values are deposited in ChEMBL (CHEMBL3988442, “University of Dundee, Small-Polar-MMV Screening Library” (2021)).

Mtb growth Cornell: 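Whole-cell assay for inhibitors of Mycobacterium tuberculosis growth, labelled Cornell in the record; the read-out is not stated. The concentration is filed as 10 mM, unlikely as a test dose, so the dose is not known. Higher means stronger inhibition (inferred from two other growth screens of the library). Of about 53,000 compounds tested this way, about 900 (1.7%) reached 50% or more in at least one test.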
Mtb heat-shock: 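Assay on Mycobacterium tuberculosis, filed only as a heat shock assay from Cornell; the read-out is not stated. The concentration is filed as 10 mM, unlikely as a test dose, so the dose is not known. The record gives no direction; compounds that gave an IC50 in retests scored well above the rest, so higher reads as stronger inhibition. Size under these conditions: about 69,000 compounds, about 930 of them at 50% or above in at least one test.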

Results are given as percent effect. How 0% and 100% were set is not recorded. Most values in the screen are low, and negative values occur. Compounds were drawn at random from those tested, without regard to their results. A dash means the value is not listed here; it may have been measured.

structure | Mtb growth Cornell | Mtb heat-shock
CC(=O)N1CCN([C@@H]2CC[C@@H](NC(=O)c3ccc(C)nc3)[C@H]2O)CC1 | -13.97% | -6.988%
O=C(CN1CCc2onc(-c3ccccc3F)c2C1)NC1CC1 | -31.23% | -4.423%
CS(=O)(=O)N1CC[C@]2(C[C@H](Oc3ccccn3)CO2)C1.O=C(O)C(F)(F)F | 4.001% | 28.35%
Cc1ccc(C(NC(=O)C2CC2)c2cccc(S(C)(=O)=O)c2)cc1 (stereo unspecified) | 6.481% | 7.436%
O=C(NCCCC(=O)N1CCN(CC2CC2)c2ccccc21)C1CC1 | - | -18.68%
Cc1cnc(C)c(-c2cccc(-c3ccn(CCN4CCCC4)n3)c2)n1 | - | 9.695%
O=c1c2cccc(Cl)c2ncn1C1CCNC1 (stereo unspecified) | 31.72% | -23.5%
O=C(C1CC1)N1CCc2nc(C3CCN(C(=O)C4CC4)C3)nc(O)c2C1 (stereo unspecified) | -27.75% | -2.534%
CN1C(=O)CC(C(=O)O)C12CCN(Cc1ccc(Cl)cc1F)CC2 (stereo unspecified) | 23.21% | -12.9%
Cc1cccc(N2CCC(N3CCCC4(CNC(=O)O4)C3)CC2)c1C (stereo unspecified) | - | -26.92%
O=C1CCC(c2nc(C3CCN(C(=O)C4CC4)CC3)no2)N1 (stereo unspecified) | 13.14% | 9.365%
N#Cc1ccnc(SCC2CN=C(N3CCOCC3)S2)c1 (stereo unspecified) | -12.1% | -0.9869%
COCCNC(=O)c1cc(-c2ccc3c(c2)CCO3)n[nH]1 | -15.05% | -3.4%
O=C(O)C(F)(F)F.O=C(O)C(F)(F)F.[H][C@@]12CCCO[C@]1([H])[C@H](N(C)Cc1ccco1)CN2Cc1c(C)noc1C | 17.89% | 5.515%
CNc1cc(C)nc(C2CN(Cc3ccc(Cl)cn3)CCO2)c1 (stereo unspecified) | -11.85% | -5.457%
CCN1CCOC(CNCc2c(Cl)nc3ccccn23)C1 (stereo unspecified) | -12.43% | 16.8%
O=C(NCCc1ccc(F)cc1)NCC(O)c1cccc(F)c1 (stereo unspecified) | -60.8% | -20.8%
Cc1cn2c(n1)C(CNCC1=Cc3ccccc3OC1)CCC2 (stereo unspecified) | - | 28.86%
[H][C@]12CCN(S(=O)(=O)c3ccc(F)cc3)[C@@]1([H])CC[C@@H](COC)O2 | 11.58% | -3.605%
Cc1cnn(C2CN(c3ccccc3S(=O)(=O)C(F)(F)F)C2)c1 | 24.62% | 37.65%
O=C(c1ccco1)N(CC(F)(F)F)C1CCOCC1 | -66.66% | 15.68%
COCCC1CN(Cc2cn(CCC(N)=O)c3ccccc23)CCO1 (stereo unspecified) | -7.381% | 5.928%
Cc1csc(N2CCN(Cc3cccnc3)CC2C)n1 (stereo unspecified) | 17.54% | 2.844%
CN(Cc1ccccc1F)C(=O)CS(=O)(=O)Cc1ccc(Cl)c(Cl)c1 | - | 11.89%
CN1CC(c2n[nH]c(=O)n2-c2cccc(Cl)c2)CC1=O (stereo unspecified) | - | -142.8%
Cc1nc(CN2CCc3ncnc(C4CCOC4)c3CC2)cs1.O=C(O)C(F)(F)F (stereo unspecified) | 16.39% | -40.97%
FC(F)(F)c1cccc(OC2CCN(Cc3c[nH]cn3)CC2)c1 | -51.17% | -15.46%
CCOC(=O)C1CN(S(C)(=O)=O)Cc2ncn(CC)c21 (stereo unspecified) | -58.33% | 0.93%
CN(Cc1cccs1)C(=O)c1ccc(N2CCOCC2)c(F)c1 | 15.35% | -14.22%
COCCN1CCC2(C1)CN(c1ncccn1)C2.O=C(O)C(F)(F)F | 13.65% | -23.57%
Cc1ccc(C(=O)CCC(=O)N2CCC(c3nncn3C)CC2)cc1 | 15.1% | 9.132%
CN(CCc1ccccn1)C(=O)C(c1cccnc1)N1CCOCC1 (stereo unspecified) | 27.29% | -16.22%
Cn1cc(CN2CCCN(C(=O)c3cc[nH]n3)CC2)cn1 | 19.42% | 18.65%
Cc1cc(N2CCN(Cc3nccn3C)CC2)cc(C)n1 | -9.192% | 8.618%
CCN(Cc1ccc(S(C)(=O)=O)cc1)Cc1nc(COC)no1 | 17.53% | -27.99%
O=C(O)C(F)(F)F.O=C(O)C(F)(F)F.[H][C@@]12C[C@@H](Oc3cccc(F)c3)CN1CCN(C(=O)Cc1ccccn1)C2 | -25.06% | -12.23%
O=S(=O)(NCCc1c[nH]c2cc(F)ccc12)C1CCOC1 (stereo unspecified) | - | -26.78%
CC(C)OCCCNC(=O)CS(=O)(=O)Cc1ccc(Cl)c(Cl)c1 | 12.57% | 6.212%
Cn1cnc(S(=O)(=O)NCC(O)c2ccc3c(c2)CCO3)c1 (stereo unspecified) | 8.989% | 14.89%
CN(C)CCC1CN(C(=O)c2cccc3c2OCC3)CCO1 (stereo unspecified) | - | -15.4%
Cc1c(CN2CCc3[nH]cnc3C2C2CC2)[nH]c2ccc(F)cc12 (stereo unspecified) | - | 10.39%
Cn1cccc(NC(=O)NCCc2cccc(O)c2)c1=O | 8.977% | -22.03%
CC(O)CN1CCN(C(=O)c2cnn(-c3ccccc3Cl)c2)CC1 (stereo unspecified) | -6.658% | -21.75%
CNC(=O)COc1ccc(-c2ccccc2)nc1 | -18% | 0.6382%
Cl.Cn1cc([C@@H]2CN(S(=O)(=O)c3cccnc3)C[C@H]2N)c2ccncc21 | -24.34% | -21.06%
COc1ccc(CCNC(=O)CN2CCOCS2(=O)=O)cc1 | -18.81% | -2.819%
O=C(O)C(F)(F)F.O=C(c1ccccc1)N1CCC[C@]2(C[C@@H](Oc3ncccc3F)CO2)C1 | -27.07% | -17.82%
Cl.O=C(CN1CCC[C@H]1C(=O)O)NCCOc1cccc(Cl)c1 | -1.018% | -7.389%
O=C(O)C(F)(F)F.O=C(O)C(F)(F)F.O=C(c1ccco1)N1CC[C@@H](N2CCOCC2)[C@@H]1Cc1ccncc1 | 3.961% | 1.142%
CCc1nccn1C1CCCN(C(=O)Cc2ccc(OC)c(F)c2)C1 (stereo unspecified) | - | 1.513%
Cc1ccccc1CNC(=O)C1CCN(Cc2nccn2C)CC1 | 4.63% | -1.421%
CNC(=O)C1Cn2ccnc2C2(CCN(Cc3cccc(C)n3)CC2)O1.O=C(O)C(F)(F)F (stereo unspecified) | 8.44% | -1.384%

The first 7 entries again:

| structure | Mtb growth Cornell | Mtb heat-shock |
|---|---|---|
| `CC(=O)N1CCN([C@@H]2CC[C@@H](NC(=O)c3ccc(C)nc3)[C@H]2O)CC1` | -13.97% | -6.988% |
| `O=C(CN1CCc2onc(-c3ccccc3F)c2C1)NC1CC1` | -31.23% | -4.423% |
| `CS(=O)(=O)N1CC[C@]2(C[C@H](Oc3ccccn3)CO2)C1.O=C(O)C(F)(F)F` | 4.001% | 28.35% |
| `Cc1ccc(C(NC(=O)C2CC2)c2cccc(S(C)(=O)=O)c2)cc1` (stereo unspecified) | 6.481% | 7.436% |
| `O=C(NCCCC(=O)N1CCN(CC2CC2)c2ccccc21)C1CC1` | - | -18.68% |
| `Cc1cnc(C)c(-c2cccc(-c3ccn(CCN4CCCC4)n3)c2)n1` | - | 9.695% |
| `O=c1c2cccc(Cl)c2ncn1C1CCNC1` (stereo unspecified) | 31.72% | -23.5% |